According to PubChem BioAssay AID588590 (National Center for Advancing Translational Sciences (NCATS), 2011):
Hit rate of the full screen: of about 390,000 compounds, about 4,000 (1%) were called active. Inconclusive means that the source gave no clear call. Such entries were picked first, then a sample of the others. Calls follow the shape of the dose curve; as a rule, active = well fitted inhibition curve with a large enough effect; inconclusive = small, poorly fitted or top-dose-only effect, or another doubt; inactive = no such curve, though single readings can be large or run the other way. Potencies of inconclusive entries are doubtful fits and often do not repeat.
Potency is read from the fitted curve at half-maximal effect.

Protein sequences, listed by entry. Tags and fused reporters are not part of them. Lines headed by an entry give the natural chain unless they say otherwise; changes in a name come on top.
UniProt Q9UNA4: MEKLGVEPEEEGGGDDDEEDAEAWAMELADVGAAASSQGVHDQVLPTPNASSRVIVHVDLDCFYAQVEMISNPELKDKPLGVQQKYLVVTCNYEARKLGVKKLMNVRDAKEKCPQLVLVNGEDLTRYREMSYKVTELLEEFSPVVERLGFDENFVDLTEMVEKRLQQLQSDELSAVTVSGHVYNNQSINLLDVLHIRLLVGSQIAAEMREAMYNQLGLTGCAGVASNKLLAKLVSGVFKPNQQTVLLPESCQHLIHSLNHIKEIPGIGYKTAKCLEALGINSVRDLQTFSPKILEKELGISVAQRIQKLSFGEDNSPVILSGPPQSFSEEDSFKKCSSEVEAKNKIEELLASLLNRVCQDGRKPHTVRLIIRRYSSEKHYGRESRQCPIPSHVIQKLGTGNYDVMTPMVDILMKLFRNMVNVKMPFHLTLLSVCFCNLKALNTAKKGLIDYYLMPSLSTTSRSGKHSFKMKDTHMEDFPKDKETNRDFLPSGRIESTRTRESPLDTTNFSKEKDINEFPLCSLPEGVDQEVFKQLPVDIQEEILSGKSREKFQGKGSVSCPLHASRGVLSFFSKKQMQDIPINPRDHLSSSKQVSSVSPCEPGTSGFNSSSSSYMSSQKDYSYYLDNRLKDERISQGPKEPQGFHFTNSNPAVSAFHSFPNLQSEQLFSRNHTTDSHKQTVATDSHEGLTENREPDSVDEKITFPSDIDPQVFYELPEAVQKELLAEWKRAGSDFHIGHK

These compounds were tested against DNA polymerase iota (Homo sapiens) (UniProt Q9UNA4) (assay: qHTS for Inhibitors of Polymerase Iota). Details: Pol iota fluorescent replication assay, 10 min; series mostly up to 115 µM; activity, negative = inhibition: at the top concentration.
Summary of the method: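 Fluorescent replication assay read twice, at 0 min and 10 min after adding 50 nM (final) substrate. Enzyme (10 nM) and compounds were first incubated 15 min at room temperature; enzyme-free buffer wells were negative controls.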
In the case of `O=C(COc1ccc2ccccc2c1)NNC(=O)Nc1ccc(F)cc1F`, the Potency is reported as inconclusive: 89.1 µM [inhibitor, single point].
With `CCC(c1nnnn1Cc1ccccc1)N1CCN(C(=O)c2ccco2)CC1` (centres undefined) the Potency was inconclusive: 50.1 µM [inhibitor, partial curve, poor fit].
In the case of `Nc1c(NCc2ccccc2F)c(=O)[nH]c(=O)n1Cc1ccccc1`, the Potency is reported as inconclusive: 22.4 µM [inhibitor, partial curve, poor fit].
`O=C(NC1CC1)c1cccc(Nc2ccc(-c3ccc4c(c3)OCCO4)nn2)c1` was tested, and the Potency was inconclusive: 15.8 µM [inhibitor, full curve, poor fit].
`CCn1c(/C=C/c2ccc(F)cc2)nc2ccccc2c1=O` was tested, and the Potency was inconclusive: 39.8 µM [inhibitor, single point].
For `O=C(CSc1nc2ccccc2s1)Nc1cc(C(=O)O)cc(C(=O)O)c1`, the Potency was inconclusive: 17.8 µM [inhibitor, single point].
For `COc1ccc(CCn2c3c(c(=O)[nH]c2=S)CN(Cc2ccccc2)CN3)cc1OC`, the Potency was inconclusive: 39.8 µM [inhibitor, single point].
In the case of `O=C(Cn1c(SCc2cccc(F)c2)nc2cccnc21)Nc1ccc(F)c(Cl)c1`, the “activity, negative = inhibition” value is reported as inactive: -1.65%.
`O=C(CSc1nnc(-c2cccnc2)o1)c1cc2ccccc2oc1=O` was tested, and the Potency was inconclusive: 25.1 µM [inhibitor, partial curve, poor fit].
`Cc1cc(N=Cc2c(O)ccc3cc(Br)ccc23)no1` was tested, and the Potency was inconclusive: 20 µM [inhibitor, full curve, poor fit].
`C#CCOCCOCCOCCNc1nc(N2CCN(C(=O)[C@H](CCCN=C(N)N)n3cc(C(N)[C@@H](C)CC)nn3)CC2)nc(N2CCN(C(=O)[C@H](CCCCN)n3cc([C@@H](N)CC(N)=O)nn3)CC2)n1` (some centres undefined) was tested, and the Potency was inconclusive: 14.1 µM [inhibitor, full curve, poor fit].
In the case of `O=C(COc1ccccc1Cl)Nc1cc(-c2ccccc2F)nn1-c1ccccc1`, the “activity, negative = inhibition” value is reported as inactive: 9.49%.
`COCCn1c(=S)[nH]c2cc(C(=O)N3CCN(c4cccc(Cl)c4)CC3)ccc2c1=O` was tested, and the Potency was inconclusive: 56.2 µM [inhibitor, partial curve, poor fit].
For `CCc1nn2c(=O)cc(COc3ccc(/C=C4\C(=N)N5N=C(CC(C)C)SC5=NC4=O)cc3)nc2s1`, the Potency was inconclusive: 2.51 µM [inhibitor, full curve, poor fit].
In the case of `CCOc1ccc(-c2nonc2NC(=O)c2oc3ccc(F)cc3c2C)cc1`, the Potency is reported as inconclusive: 100 µM [inhibitor, partial curve, poor fit].
For `O=C(Nc1ccc2oc(=O)ccc2c1)c1ccc(-c2cccc([N+](=O)[O-])c2)o1`, the “activity, negative = inhibition” value was inactive: 47.2%.
With `COc1ccc(/C=C/C(=O)c2ccc(OC)cc2O)cc1` the Potency was inconclusive: 1.41 µM [inhibitor, full curve, poor fit].
In the case of `Cc1nc([N+](=O)[O-])c(Br)n1CC(=O)c1ccc2ccccc2c1`, the Potency is reported as inconclusive: 79.4 µM [inhibitor, full curve, poor fit].
`CNS(=O)(=O)c1cn(CC(=O)N2CCN(c3ccccc3F)CC2)cc1S(=O)(=O)NC` was tested, and the Potency was inconclusive: 79.4 µM [inhibitor, partial curve, poor fit].
With `Cc1ccc(C2(C)NC(=O)N(CC(=O)NCCC3=CCCCC3)C2=O)cc1` (centres undefined) the Potency was inconclusive: 20 µM [inhibitor, single point].
For `Cc1cccc(-c2nc3c(c(SCC(=O)N4CCOCC4)n2)Cc2c(CO)cnc(C)c2O3)c1`, the Potency was inconclusive: 56.2 µM [inhibitor, partial curve, poor fit].
In the case of `CCN(CC)CC#CCOC(=O)C(O)(c1ccccc1)C1CCCCC1` (centres undefined), the Potency is reported as inconclusive: 12.6 µM [inhibitor, partial curve].
With `COc1ccc(-c2nn(-c3ccccc3)cc2/C=N/Nc2cccc(C(=O)O)c2)cc1` the “activity, negative = inhibition” value was inactive: 70.9%.
In the case of `CCN(CC)C(=O)c1cccc(NC(=O)CCc2nc3sc4c(c3c(=O)[nH]2)CCCC4)c1`, the Potency is reported as inconclusive: 44.7 µM [inhibitor, single point].
For `COc1ccc(CNC(=O)c2cc(COc3c(F)cccc3F)on2)cc1OC`, the Potency was inconclusive: 0.708 µM [inhibitor, full curve, poor fit].
For `Cc1cccc(C(=O)Nc2sc3c(c2C(=O)N2CCCCC2)CCC(C)C3)c1` (centres undefined), the “activity, negative = inhibition” value was inactive: 1.78%.
With `CC(=O)N1CCOc2cc(S(=O)(=O)NC(C)c3ccccc3)c(Cl)cc21` (centres undefined) the Potency was inconclusive: 3.55 µM [inhibitor, full curve, poor fit].
For `CCOC(=O)c1c(NC(=O)/C=C/c2ccc(C(C)C)cc2)sc2c1CCC2`, the Potency was inconclusive: 100 µM [inhibitor, single point].
With `O=C1NC(=S)SC1=Cc1cccs1` the Potency was inconclusive: 28.2 µM [inhibitor, single point].
In the case of `COc1ccc(N(CC(=O)NCCSCc2ccco2)S(=O)(=O)c2ccccc2)cc1OC`, the Potency is reported as inconclusive: 79.4 µM [inhibitor, partial curve].
For `Cc1ccccc1N1CC(C(=O)Nc2nnc(SCC(=O)Nc3nccs3)s2)CC1=O` (centres undefined), the Potency was inconclusive: 35.5 µM [inhibitor, single point].
In the case of `COc1ccc(C2C(C#N)=C(C)NC3=C2C(=O)CC(C)(C)C3)cc1` (centres undefined), the Potency is reported as inconclusive: 44.7 µM [inhibitor, partial curve, poor fit].
For `CC(=O)Nc1ccc(-c2nnn(CC(=O)c3ccc(F)cc3)n2)cc1Cl`, the Potency was inconclusive: 79.4 µM [inhibitor, single point].
For `CN(C(=O)c1ccno1)c1nnc(-c2ccccn2)s1`, the Potency was inconclusive: 39.8 µM [inhibitor, partial curve, poor fit].
`C/C(=N/NC(=O)CNC(=O)c1ccc2c(c1)OCO2)c1ccc2c(c1)CCCC2` was tested, and the “activity, negative = inhibition” value was inactive: 48.8%.
With `O=C(NC1CCCCCC1)c1ccc(OCC2CCCO2)cc1` (centres undefined) the “activity, negative = inhibition” value was inactive: -33.3%.
For `Cn1cnc(S(=O)(=O)N2CCC(C(=O)NCc3ccccc3Cl)CC2)c1`, the “activity, negative = inhibition” value was inactive: 32.8%.
With `Cc1cc(C)c2c(c1)NC(=O)C2(O)CC(=O)c1cccs1` (centres undefined) the Potency was inconclusive: 39.8 µM [inhibitor, single point].
`O=C(CSc1ccsc1[N+](=O)[O-])N1CCCCCC1` was tested, and the Potency was inconclusive: 39.8 µM [inhibitor, single point].
